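Genome-wide siRNA knockdown in TC32 Ewing sarcoma cells, comparing luciferase light from an NR0B1-promoter reporter with a CMV-promoter reporter 48 hours after transfection.
Each siRNA was applied at 20 nM.
A z-score of the log NR0B1-over-CMV signal, less the median of siRNAs with the same seed; more negative means a stronger specific loss of the NR0B1 reporter.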

This is part of the screen; most of the strongest results are not listed here.
Sequences are the guide (antisense) strand, without overhang.

| Sequence | gene | seed-corrected z-score |
|---|---|---|
| `UUGCUUGAAAGAUACCACC` | TIMM17A | 0.06638 |
| `UGUCUUCUCAGGAUUGUCC` | ACSM5 | -1.194 |
| `UGCAUCUACGUUGUUCUCC` | PC | -0.0009664 |
| `UCCUUGAACAUUGGAUCUC` | ISPD | 0.06652 |
| `UCGUUUGUCAAGUAUACAG` | NRK | 0.929 |
| `UCGUUGAUGAUUUCUAACC` | NTRK2 | -1.276 |
| `UAGUCUAUCAGGCGAUUUC` | CSPP1 | 0.7742 |
| `UUGUGGUAAUUGUAGAACU` | CNRIP1 | -0.2856 |
| `AAGCUACUUGGGUUCCUCC` | SERF2 | 0.6537 |
| `UCCCGUAGAAGUAGAGGCG` | TMEM229A | -0.02344 |
| `UUCUUUCUCACGGGAAGAC` | ALKBH2 | 0.6043 |
| `UUGAGAUAAUCCAUCAACC` | ATP11C | -0.1184 |
| `UCAUCUGUCAGCCCUUUCU` | PEX14 | -0.02628 |
| `UUGGAAUCUGCUGUCUGCC` | DLEU1 | 0.3273 |
| `UUUAAUCUAUACUUGAGUC` | LBR | 0.2897 |
| `UCCCUUGUGAGCUUGAUCC` | WDR36 | 0.8265 |
| `AUAGUUACCCGAAGGAUGG` | POC1B | 1.332 |
| `UCCAAUUACAGCUUGUUUG` | LOC645877 | 0.7607 |
| `UUGAGAGCAAGACCUAAGC` | YWHAE | -1.958 |
| `UUACCAUUUGGAGCCCUUC` | PAICS | -0.02238 |
| `UUCGAUUUGGGAUUUAGGC` | CXCL11 | 0.2168 |
| `UUCGUUUGAAGGGAGUAAG` | ADGRG2 | -0.2411 |
| `UAGAGAUCAUUGCAGAUGG` | KLHDC9 | -1.244 |
| `UUAGUGCUUCGGCUAAAGG` | ZNF391 | 0.4007 |
| `UUUGGUGAUAGGAGGGAGU` | LINC00303 | -0.5903 |
| `UAUUUGGAGAGAUUACUUC` | LOC100288842 | -0.4927 |
| `UUUUCAAACAACAUUGGUG` | CTC1 | 0.1521 |
| `UUUCCUUUCAUUGCAAAGU` | POLE3 | -0.4364 |
| `UAUGGUCUUCUUUAGCUUG` | ARID3B | -1.674 |
| `UUCGGUUUGUAAAUAGCUC` | CES1 | -0.01001 |
| `AAAGAUGUUGCAGCCGUGG` | PDE2A | -0.3721 |
| `UGGGUUCAGAGUUCCGAGU` | SLURP1 | 0.302 |
| `UUACCGAAGCUGAAUGACC` | WDR72 | -0.3631 |
| `UGUUCACAAAUGGGUAGGC` | PEX12 | 0.6047 |
| `UCUCUAACAAAGGCGAAGC` | MAP3K4 | 0.4529 |
| `UCAGAGAUAGGUGCAAAGG` | NEK8 | -0.7018 |
| `UAAGUUGAGAGGCAGCAUC` | MAT2B | 0.6598 |
| `UUUUAAACCAAUCCUGCUC` | SNAPC4 | 0.002788 |
| `UUUGCUGUCCAGUUGAUCC` | CDC6 | 0.382 |
| `UAUAGUAGAACUGUCCUCG` | HSD3B1 | -0.4376 |
| `AAAGUGAGCACAUAUUGGU` | MOGAT3 | 0.6464 |
| `UGAUCCUUGAAUGAGAACC` | SLC5A12 | -0.2891 |
| `UCUCUGAAAUGGAAAGUCC` | LOC387939 | 0.0474 |
| `UCAGUUGUAGUAGUAAUAG` | HTRA4 | 0.2046 |
| `UUCAGAAUCAGAUCUGUGC` | FBXL18 | 0.1178 |
| `UUUGUGACAAAGAACGAGU` | MYBBP1A | -0.2845 |

The results are deposited in PubChem (AID1159506; NCATS, 2015).